## Screening data, single-dose tests

Protein sequences, listed by entry. Tags and fused reporters are not part of them. Residues count along the entry.
UniProt A4I591, 1-473: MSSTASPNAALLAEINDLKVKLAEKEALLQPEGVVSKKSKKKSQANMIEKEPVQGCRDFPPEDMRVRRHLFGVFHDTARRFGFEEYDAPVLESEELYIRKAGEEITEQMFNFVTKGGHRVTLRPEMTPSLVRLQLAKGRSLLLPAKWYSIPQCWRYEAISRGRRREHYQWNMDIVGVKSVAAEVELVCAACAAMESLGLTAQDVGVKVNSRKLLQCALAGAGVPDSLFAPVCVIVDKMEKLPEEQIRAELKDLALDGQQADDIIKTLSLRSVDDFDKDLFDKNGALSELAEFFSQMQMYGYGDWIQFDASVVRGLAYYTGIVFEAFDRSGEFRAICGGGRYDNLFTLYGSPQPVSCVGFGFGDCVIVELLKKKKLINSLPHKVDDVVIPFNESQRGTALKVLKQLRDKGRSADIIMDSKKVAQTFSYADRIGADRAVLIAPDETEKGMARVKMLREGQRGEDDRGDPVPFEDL
UniProt P9WFT3, whole entry: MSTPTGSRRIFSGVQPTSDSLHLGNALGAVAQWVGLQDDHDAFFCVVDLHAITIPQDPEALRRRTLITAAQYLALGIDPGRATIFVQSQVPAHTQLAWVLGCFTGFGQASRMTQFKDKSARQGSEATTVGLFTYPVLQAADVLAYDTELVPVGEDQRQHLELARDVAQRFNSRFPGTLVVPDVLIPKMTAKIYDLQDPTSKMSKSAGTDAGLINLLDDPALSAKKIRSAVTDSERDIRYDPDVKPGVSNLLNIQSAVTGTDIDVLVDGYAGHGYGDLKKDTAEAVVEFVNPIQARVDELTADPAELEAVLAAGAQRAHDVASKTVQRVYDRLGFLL
UniProt P9WNZ1, whole entry: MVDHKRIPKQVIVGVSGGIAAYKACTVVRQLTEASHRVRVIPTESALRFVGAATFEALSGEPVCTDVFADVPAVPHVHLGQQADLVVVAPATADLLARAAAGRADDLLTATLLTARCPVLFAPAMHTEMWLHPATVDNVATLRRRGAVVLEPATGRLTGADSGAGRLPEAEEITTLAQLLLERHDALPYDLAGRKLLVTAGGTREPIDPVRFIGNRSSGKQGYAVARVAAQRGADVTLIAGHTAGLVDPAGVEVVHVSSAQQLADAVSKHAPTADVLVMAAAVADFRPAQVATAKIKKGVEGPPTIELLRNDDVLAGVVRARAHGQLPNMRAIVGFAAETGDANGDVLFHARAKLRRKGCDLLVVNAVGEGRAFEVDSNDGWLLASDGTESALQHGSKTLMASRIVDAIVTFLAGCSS

LiHisRS: 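Histidine-tRNA ligase, Leishmania infantum (UniProt A4I591). Enzyme assay of histidyl-tRNA synthetase; the read-out is not stated. Compounds at 30 µM. The record gives no direction; compounds that gave an IC50 in retests scored well above the rest, so higher reads as stronger inhibition. The assay is labelled LdHisRS but filed under L. infantum. Of about 69,000 compounds tested this way, about 410 (0.6%) reached 50% or more in at least one test.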
MtTrpRS: 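Tryptophan-tRNA ligase, Mycobacterium tuberculosis (UniProt P9WFT3). Enzyme assay of tryptophanyl-tRNA synthetase; the read-out is not stated. Tested at 10 µM. Direction is not recorded; retested compounds ran higher, which suggests that high means inhibition. About 65,000 compounds were tested under these conditions; 0.098% (about 64) showed 50% or more at least once.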
Toxoplasma: 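Assay of Toxoplasma gondii numbers, read through their beta-galactosidase reporter with a colour substrate. Tested at 10 µM. Higher reads as fewer parasites (inferred from which compounds were picked for retests). Size under these conditions: about 67,000 compounds, about 260 of them at 50% or above in at least one test.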
CoaBC: 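Enzyme assay of CoaBC with a phosphate dye (Biomol Green) read at 650 nm. Target: Coenzyme A biosynthesis protein CoaBC, Mycobacterium tuberculosis (UniProt P9WNZ1). Compounds at 30 µM. Direction is inferred from only a few compounds that gave an IC50; most scored high, so higher reads as stronger inhibition. Most strong results did not repeat in a second test. About 67,000 compounds were tested under these conditions; 0.06% (about 40) showed 50% or more at least once.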

Values are the deposited “Percent Effect”, in %.
The controls that fix the scale are not given in the record; negative values are as filed.
This is an unselected part of the compounds tested.
A dash means the value is not listed here; it may have been measured.

| compound | LiHisRS | MtTrpRS | Toxoplasma | CoaBC |
|---|---|---|---|---|
| `CNc1ncc(CN(C)C(=O)c2cccc(-n3cccn3)c2)cn1` | 8.065% | 0.7508% | -13.17% | 0.3699% |
| `Cc1n[nH]c(SCC(=O)NC(c2ccncc2)C(C)C)n1` (stereo not shown) | -6.452% | -5.385% | -2.052% | -2.211% |
| `O=C(O)C(F)(F)F.[H][C@@]12CCN(CC3CCOCC3)[C@@]1([H])CCN2C(=O)c1cccc(C#N)c1` | - | - | 0.5059% | - |
| `c1cncc(CN2Cc3nccn3CC(Cn3cncn3)C2)c1` (stereo not shown) | -26.6% | -1.708% | - | 3.393% |
| `Cn1cc(CN2CC[C@H]3OCC[C@@H](C(=O)Nc4cnccn4)[C@@H]3C2)cn1` | 17.95% | -1.66% | - | 6.266% |
| `Cc1nc(C)n(C2CCCN(C(=O)c3cccc4[nH]ncc34)C2)n1` (stereo not shown) | -1.653% | -3.662% | 2.085% | 0.216% |
| `O=C([C@@H]1C[C@@H]2CCN(C3CCOCC3)C[C@@H]2O1)N1CCOCC1` | 8.333% | -6.443% | - | 10.12% |
| `CC(=O)NCCCn1ncc2c(C)cccc21` | 17.24% | -0.3886% | -0.6061% | 0.9238% |
| `NCC1CN(C(=O)Cn2ncc(N3CCCCC3)cc2=O)CCO1` (stereo not shown) | 11.39% | -0.4182% | 2.979% | 2.662% |
| `CN(CC1CCOC1)S(=O)(=O)c1cccc(C(=O)N2CCOCC2)c1` (stereo not shown) | 12.09% | 0.712% | 0.6408% | -5.783% |
| `CNc1nc(CN2C[C@@H](NC(C)=O)[C@H](c3ccc(C)o3)C2)cs1` | 25.53% | 5.774% | -4.539% | 0.2481% |
| `Cc1nc(CN(Cc2cccs2)C2CCS(=O)(=O)C2)oc1C` (stereo not shown) | 4.545% | 1.072% | 3.076% | 8.514% |
| `CCCC(=O)N1CCc2c(CNS(C)(=O)=O)cncc2C1.Cl` | - | - | -6.898% | - |
| `COc1c(C)cnc(CN2CCCC2c2noc(C3CC3)n2)c1C` (stereo not shown) | 6.218% | 5.419% | -4.131% | 2.166% |
| `CS(=O)(=O)CC1(CNc2c(C#N)cnc3ccc(Cl)cc23)CC1` | 3.109% | -0.5113% | 5.393% | 1.401% |
| `N#Cc1cccc(C(=O)N2C[C@H]3CC[C@@H]2CN(C(=O)C2CCC2)C3)c1` | 15.2% | -1.377% | - | -1.086% |
| `CNC(=O)CCS(=O)(=O)Cc1coc(-c2ccc(F)cc2)n1` | 16.33% | 2.743% | -2.816% | -5.052% |
| `CC(c1cccc(-c2cn(Cc3ccoc3)nn2)c1)N(C)C` (stereo not shown) | 1.042% | -5.255% | 9.432% | 3.856% |
| `Cc1noc(C)c1CNCC1COCc2c(-c3ccoc3)nnn2C1` (stereo not shown) | 0% | 2.525% | - | 4.277% |
| `OCCC1CN(c2ncnc3[nH]cnc23)CCN1Cc1ccccc1F` (stereo not shown) | 11.11% | -0.343% | 3.521% | -3.782% |
| `Cc1cccc(-c2cc(-c3c(C)nn(CCO)c3C)c(C#N)c(N)n2)c1` | 21.52% | 0.2987% | 1.915% | 2.662% |
| `Cc1nn(-c2ccccc2)cc1C(=O)N1CCCN2CCCC2C1` (stereo not shown) | 25.68% | -3.294% | 16.74% | 3.52% |
| `COc1ccc(Cl)cc1C(=O)N1C[C@@H](NC(=O)N(C)C)[C@H](C(C)C)C1` | 12.94% | 5.45% | 0.08489% | 2.265% |
| `F[C@@H]1CN(Cc2ccccc2)C[C@@H]1OCc1nc2ccccc2[nH]1` | 24.32% | -1.449% | 7.164% | 10.81% |
| `CN1CC(c2ccccc2)C2(CCN(C(=O)c3ccc[nH]3)CC2)C1=O` (stereo not shown) | 5.263% | -2.326% | -8.693% | -0.2114% |
| `CN1CCN(C(=O)NCCNc2ncccn2)Cc2ccccc21` | 10.67% | -2.611% | 1.479% | 6.198% |
| `CO[C@@H]1CCN(Cc2c(C)noc2C)[C@@H]2CN(Cc3ccco3)C[C@@H]21` | 13.21% | - | - | -0.4878% |
| `Cc1cccc(C(=O)NC(C)CN2CCCC2=O)n1` (stereo not shown) | 14.29% | 15.38% | -11.6% | 4.943% |
| `c1cc(CCN2CCCC2CN2CCCC2)ccn1` (stereo not shown) | 1.613% | -5.56% | -9.461% | 4.89% |
| `COCCN(C)CCN1CC2(CCN(C3CCOCC3)CC2)OC1=O` | 10.4% | 3.986% | -4.623% | 2.292% |
| `CCc1csc(C2CCCN(C(=O)c3cc(C4CC4)[nH]n3)C2)n1` (stereo not shown) | 5.217% | -1.363% | 0.2612% | 3.226% |
| `Cc1cc(NC(C)C(=O)NCC(F)(F)F)nc(-c2ccncc2)n1` (stereo not shown) | 26.67% | 3.398% | 2.596% | -10.21% |
| `O=C(NCc1cccc(F)c1)NC1CCCN(c2ncccn2)C1` (stereo not shown) | 16.98% | -1.484% | 0.4489% | 1.053% |
| `O=C(CCc1ccc(Cl)s1)NCc1nnc2n1CCCCC2` | 9.649% | -2.298% | -11.96% | 2.738% |
| `O=C(c1ccnnc1)N1CCc2ncnc(C3CCOC3)c2CC1` (stereo not shown) | 21% | -6.293% | -7.286% | 1.112% |
| `CC(C)c1ncc(CN2C[C@@H](CN3CCC(CO)CC3)[C@@H](CO)C2)cn1` | 18.45% | 1.243% | 2.093% | -2.232% |
| `CN(CCCOc1ccccc1Cl)C(=O)CN1CCNC1=O` | 24.78% | -2.313% | 7.199% | 2.138% |
| `COCCN1C[C@H]2CC[C@@H]1CN(C(=O)c1ccc(Cl)cc1)C2` | 20.83% | 2.74% | - | 5.288% |
| `Cc1nc(C)c(CCNC(=O)NC2CC(=O)N(C(C)(C)C)C2)s1` (stereo not shown) | 15.62% | 6.56% | 7.883% | 1.085% |
| `O=C(c1ccc(-n2cccn2)nc1)N1CCC(Nc2cccnn2)CC1` | 13.33% | 0.86% | 3.367% | 0.7692% |

Measurements from “University of Dundee, Small-Polar-MMV Screening Library” (2021), ChEMBL document CHEMBL3988442.